No constants are given. Whether binding was seen depends on the method and setting. For part of these data: In cells and extracts the contact can be indirect. Some binding calls cover weakened binding; strength is not graded here. For part of these data: Sequences can lack the tags named with a protein.
What was measured:
[1] = target: T1, EpCAM, whole protein on cells (HT-29, MCF-7, 293T transfected with full-length EpCAM plasmid pkk196) or on exosomes isolated from HT-29 cells (UniProt P16422); assay: PKH26-labeled exosomes on peptide-loaded streptavidin beads, fluorescence intensity
T1 sequence (looked up): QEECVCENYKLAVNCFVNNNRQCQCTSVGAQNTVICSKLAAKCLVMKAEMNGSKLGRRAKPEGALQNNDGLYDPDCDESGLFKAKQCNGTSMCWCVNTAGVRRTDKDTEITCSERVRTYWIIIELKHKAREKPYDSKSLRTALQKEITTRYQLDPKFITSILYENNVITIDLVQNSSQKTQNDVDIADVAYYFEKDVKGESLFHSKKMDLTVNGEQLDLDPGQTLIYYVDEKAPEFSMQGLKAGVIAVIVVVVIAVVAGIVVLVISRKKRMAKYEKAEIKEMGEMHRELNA

[2] = target: T1, EpCAM, whole protein on cells (HT-29, MCF-7, 293T transfected with full-length EpCAM plasmid pkk196) or on exosomes isolated from HT-29 cells; assay: pull-down of HT-29 exosomes on peptide-loaded streptavidin beads, Western blot with anti-EpCAM
[3] = target: T2, purified EpCAM (extracellular domain with myc and His tags at the C terminus, expressed in HEK-293T cells) (UniProt P16422); assay: pull-down of EpCAM on peptide-loaded streptavidin magnetic beads, Western blot
T2 sequence (looked up): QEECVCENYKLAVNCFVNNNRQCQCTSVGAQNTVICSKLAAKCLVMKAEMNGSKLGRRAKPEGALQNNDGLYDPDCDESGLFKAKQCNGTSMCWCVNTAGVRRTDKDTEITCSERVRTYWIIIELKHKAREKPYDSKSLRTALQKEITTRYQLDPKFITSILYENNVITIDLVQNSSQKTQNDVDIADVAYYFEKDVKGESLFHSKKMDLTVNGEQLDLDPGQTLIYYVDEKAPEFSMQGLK

- binding [1]: binds
- binding [2]: binds
- binding [3]: binds
Binder: KHLQCVRNICWS (biotinylated at the stage of synthesis (position not given)) [biotinylated Ep114 peptide (linker-free)]
